The record followed here is patent US20120100071A1 (priority 2009, published 2012).

This data set is described as follows: general procedure: peptide synthesis; succinimidyl active esters (EDC/NHS) with DIPEA in DMSO. Particulars: conjugation step.

For BP-Pen-AHx-DBI, the conjugation yield by setting is: (run 1) 64%; (run 2) 57%.

For the substance Re-BP-Pen-AHx-DBI, the conjugation yield runs as follows: (run 1) 65%; (run 2) 38%.
